Results are given in words; binding and its absence hold for the method and conditions named. Binding seen in cells or lysates may run through a third protein. Some binding calls cover weakened binding; strength is not graded here. Where a sequence is shown, tags or fusion partners need not be part of it.
Biological target: T1, HA-CHIP (hsc70-interacting protein), Q9UNE7
T1 chain: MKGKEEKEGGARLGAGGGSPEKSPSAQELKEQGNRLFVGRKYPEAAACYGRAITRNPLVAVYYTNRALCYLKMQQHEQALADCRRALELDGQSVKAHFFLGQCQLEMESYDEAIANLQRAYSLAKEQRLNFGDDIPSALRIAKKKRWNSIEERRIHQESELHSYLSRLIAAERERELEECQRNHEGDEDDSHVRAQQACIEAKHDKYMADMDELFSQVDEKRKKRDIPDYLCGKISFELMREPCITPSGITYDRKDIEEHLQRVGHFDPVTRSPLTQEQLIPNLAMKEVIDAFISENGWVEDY
Test: co-IP; co-IP with an HA antibody; cells not given
Settings: remark: other sources report otherwise

- binding: binds
B1: Bcl2-associated athanogene 2 (BAG2), O95816 1-211 (protein)
chain: MAQAKINAKANEGRFCRSSSMADRSSRLLESLDQLELRVEALREAATAVEQEKEILLEMIHSIQNSQDMRQISDGEREELNLTANRLMGRTLTVEVSVETIRNPQQQESLKHATRIIDEVVNKFLDDLGNAKSHLMSLYSACSSEVPHGPVDQKFQSIVIGCALEDQKKIKRRLETLLRNIENSDKAIKLLEHSKGAGSKTLQQNAESRFN
